Test results as given in paper PMC9881158, “The DEAD-box protein Dbp6 is an ATPase and RNA annealase interacting with the peptidyl transferase center (PTC) of the ribosome” (Nucleic Acids Research, 2023).
These are yes or no findings as the source states them, for the method shown. In cells and extracts the contact can be indirect. Some entries that bind do so weakly or less than the wild type. Tags and fused reporters may be left off the sequences shown.

Target: Dbp6 expressed in yeast as HA-Dbp6 and as Dbp6-ZZ (S. cerevisiae) (UniProt P53734)
Assay: co-IP; immunoprecipitation of Dbp6-ZZ with IgG-sepharose from extracts of a yeast strain expressing HA-Dbp6 and ZZ-tagged Dbp6, in the presence of RNase; western blot

- binding: binds weakly
B1: Dbp6 expressed in yeast as HA-Dbp6 and as Dbp6-ZZ (enzyme, S. cerevisiae, UniProt P53734 1-629, looked up)
chain: MFASRFDPSQLTAPAASAPEGIVGTTPPAIVPLKRQATESDNEEYGSHQDSDESSNSSSEEDEDRMQVDYGASEEDSSEVEEEESKPSTHSTVLSRFKQTVSLQERLGASDIAESKEDEGIEDEAASTHQLKQIPQPEFVKNPMNLNTNSLQFKSTGWLNTEKIYYDNSLIKPFSDYANELEAKLLQNICKNFSTNTFPIQSIILDSILPVLNFTLNVSKRNFTRRIGDILVNAATGSGKTLAYSIPIVQTLFKRQINRLRCIIIVPTKLLINQVYTTLTKLTQGTSLIVSIAKLENSLKDEHKKLSNLEPDILITTPGRLVDHLNMKSINLKNLKFLIIDEADRLLNQSFQGWCPKLMSHLKTDKLDTLPGNVIKMIFSATLTTNTEKLNGLNLYKPKLFLKQTDKLYQLPNKLNEFNINIPTAKSVYKPLILLYSICQFMAHSPIAAKILIFVKSNESSIRLSKLLQLICESRSQSSVLKNLQNLAVSINSVNSNNSKAENKKIVANFSHHSESAGITILITTDIMSRGIDINDITQVINYDPPMSSQQYVHRVGRTARANELGSAYNLLVGRGERTFFDDLNKDLDRDGKSVQPLELDFTLLESDSELYTSSLESLKNYHNNTAQA
notes: DEAD-box protein Dbp6 of yeast (S. cerevisiae); HA-tagged ORF under the GAL1-10 promoter and wild-type DBP6 cassette in pHA113 between a GAR1 promoter and a ZZ tag; also called ZZ-tagged Dbp6; GAL::HA-DBP6; source: yeast strain expressing HA-Dbp6 as well as ZZ-tagged Dbp6, in extract
